Measurements: patent US12467060B2, “Maize event MON87429 and methods of use thereof” (Monsanto Technology LLC, priority 2018, dated 2025)
At least one structure is not confirmed: it was looked up by name or label, or the drawing left a doubt.

System: plants comprising maize event MON87429
Assay: Field trials for control of volunteer maize using clethodim
Type: in vivo, Zea mays
Conditions: clethodim at commercial label rates; three years of field trials

## CCSC(C)CC1CC(=O)C(/C(CC)=N/OC/C=C/Cl)=C(O)C1 (stereo not shown) [clethodim]
  control of plants comprising maize event MON87429: complete control
